PubChem BioAssay AID1224828 – NIAID – 2016
Assay: 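Regulators linking TLR4 signalling to p65 nuclear translocation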 (primary screen). Cell system: mouse RAW264.7 G9 macrophage reporter cells (GFP-p65, Tnf promoter-mCherry). Reagents: siRNA pool against mouse genes, 100 nM. Time to read-out: 2 days siRNA transfection, then 40 min LPS before fixation. Treatment: LPS (Salmonella minnesota R595) at 10 ng/ml. Measured: 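Microscopy ratio of nuclear to perinuclear-ring GFP-p65 signal, scaled to the plate median; gene score is the average of two replicate robust z-scores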. Direction: p65 translocation robust z-score: higher = more nuclear NF-kappaB p65 after LPS than the plate median; nuclear/cytoplasmic p65 ratio: higher = more nuclear NF-kappaB p65. Hit rule: 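Active if robust z is above 3.3 (negative regulators) or below -1.56, the Tlr4 control median (positive regulators); activity score 50 or more; control wells not called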. Meaning of the calls: active = hit (p65 shift raised or lowered); inactive = no clear change.
Here is an unselected part of about 17,000 deposited reagents. Of all reagents, 762 (4.5%) were called active. 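Active calls include both raised and lowered p65 entry, mostly lowered; wells with fewer than 50 cells lack a z-score.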 The raw values are shown without normalisation. No sequences are given here.

no.	Gene	p65 translocation robust z-score	nuclear/cytoplasmic p65 ratio, rep 1	nuclear/cytoplasmic p65 ratio, rep 2	low cell count flag	outcome
1	Tnn (GeneID 329278)	-0.89	1.28	1.09	enough cells to score	inactive
2	Il10ra (GeneID 16154)	-0.6	1.39	1.27	enough cells to score	inactive
3	Vmn1r179 (GeneID 404286)	-0.27	1.14	1.2	enough cells to score	inactive
4	Or2l13 (GeneID 259071)	1.74	1.81	1.79	enough cells to score	inactive
5	Vmn1r16 (GeneID 171202)	-0.48	1.34	1.16	enough cells to score	inactive
6	Slc15a1 (GeneID 56643)	0.1	1.43	1.26	enough cells to score	inactive
7	Ager (GeneID 11596)	-0.25	1.5	1.66	enough cells to score	inactive
8	Aplp1 (GeneID 11803)	0.71	1.76	1.69	enough cells to score	inactive
9	Mmp13 (GeneID 17386)	0.23	1.5	1.35	enough cells to score	inactive
10	Hps1 (GeneID 192236)	-0.04	1.34	1.45	enough cells to score	inactive
11	Ugt2b5 (GeneID 22238)	0.04	1.42	1.23	enough cells to score	inactive
12	Mrfap1 (GeneID 67568)	-0.89	1.32	1.4	enough cells to score	inactive
13	Ece1 (GeneID 230857)	0.51	1.57	1.4	enough cells to score	inactive
14	Hivep1 (GeneID 110521)	1.9	1.62	1.68	enough cells to score	inactive
15	Plppr3 (GeneID 216152)	0.33	1.66	1.67	enough cells to score	inactive
16	Or13j1 (GeneID 56015)		1.65	1.5	fewer than 50 cells per well; well left out of scoring	inactive
17	Or4c113 (GeneID 258815)	-0.29	1.77	1.48	enough cells to score	inactive
18	Sh2d1b1 (GeneID 26904)		1.06	1.3	fewer than 50 cells per well; well left out of scoring	inactive
19	Cops7b (GeneID 26895)	0.69	1.73	1.84	enough cells to score	inactive
20	Acat1 (GeneID 110446)	0.81	1.89	1.59	enough cells to score	inactive
21	Apod (GeneID 11815)	0.33	1.68	1.66	enough cells to score	inactive
22	Mpnd (GeneID 68047)		1.6	1.37	fewer than 50 cells per well; well left out of scoring	inactive
23	Rbm6 (GeneID 19654)	-1.09	1.37	1.26	enough cells to score	inactive
24	Ctsq (GeneID 104002)	-1.43	1.3	1.62	enough cells to score	inactive
25	Wdfy3 (GeneID 72145)	0.52	1.54	1.26	enough cells to score	inactive
26	Sesn3 (GeneID 75747)		1.29	1.28	fewer than 50 cells per well; well left out of scoring	inactive
27	Cnnm4 (GeneID 94220)	1.03	1.73	1.4	enough cells to score	inactive
28	Ambn (GeneID 11698)	-0.02	1.65	1.63	enough cells to score	inactive
29	Gpt2 (GeneID 108682)	-1.54	1.51	1.34	enough cells to score	inactive
30	Mef2a (GeneID 17258)	-0.12	1.52	1.24	enough cells to score	inactive
31	Zdhhc12 (GeneID 66220)		1.04	1.17	fewer than 50 cells per well; well left out of scoring	inactive
32	Abhd15 (GeneID 67477)		1.47	1.35	fewer than 50 cells per well; well left out of scoring	inactive
33	Pask (GeneID 269224)	-0.19	1.59	1.35	enough cells to score	inactive
34	Dnase1l2 (GeneID 66705)		1.08	1.25	fewer than 50 cells per well; well left out of scoring	inactive
35	Emp3 (GeneID 13732)	0.62	1.59	1.56	enough cells to score	inactive
36	Mrpl28 (GeneID 68611)	-0.19	1.44	1.32	enough cells to score	inactive
37	Lrrn3 (GeneID 16981)	0.01	1.75	1.52	enough cells to score	inactive
38	Cops4 (GeneID 26891)	1.79	1.89	2.02	enough cells to score	inactive
39	Adarb1 (GeneID 110532)	-0.39	1.55	1.62	enough cells to score	inactive
40	Tfap2b (GeneID 21419)	-0.18	1.43	1.56	enough cells to score	inactive
41	Hmx1 (GeneID 15371)	-1.42	1.16	1.28	enough cells to score	inactive
42	Limd2 (GeneID 67803)	1.52	1.72	1.68	enough cells to score	inactive
43	Or10g9 (GeneID 259112)		1.37	1.28	fewer than 50 cells per well; well left out of scoring	inactive
44	Sult1b1 (GeneID 56362)	0.26	1.51	1.67	enough cells to score	inactive
45	Cbl (GeneID 12402)	0.81	1.61	1.45	enough cells to score	inactive
46	Fundc2b (GeneID 73297)	-0.61	1.45	1.59	enough cells to score	inactive
47	Il12b (GeneID 16160)	-0.11	1.45	1.33	enough cells to score	inactive
48	Galnt2 (GeneID 108148)	-0.84	1.55	1.27	enough cells to score	inactive
49	Klc4 (GeneID 74764)	1.72	1.48	1.78	enough cells to score	inactive

The list goes on (9 carried over from the part before).
no.	Gene	p65 translocation robust z-score	nuclear/cytoplasmic p65 ratio, rep 1	nuclear/cytoplasmic p65 ratio, rep 2	low cell count flag	outcome
41	Hmx1 (GeneID 15371)	-1.42	1.16	1.28	enough cells to score	inactive
42	Limd2 (GeneID 67803)	1.52	1.72	1.68	enough cells to score	inactive
43	Or10g9 (GeneID 259112)		1.37	1.28	fewer than 50 cells per well; well left out of scoring	inactive
44	Sult1b1 (GeneID 56362)	0.26	1.51	1.67	enough cells to score	inactive
45	Cbl (GeneID 12402)	0.81	1.61	1.45	enough cells to score	inactive
46	Fundc2b (GeneID 73297)	-0.61	1.45	1.59	enough cells to score	inactive
47	Il12b (GeneID 16160)	-0.11	1.45	1.33	enough cells to score	inactive
48	Galnt2 (GeneID 108148)	-0.84	1.55	1.27	enough cells to score	inactive
49	Klc4 (GeneID 74764)	1.72	1.48	1.78	enough cells to score	inactive
50	Dnai1 (GeneID 68922)	-0.6	1.3	1.28	enough cells to score	inactive
51	Prr11 (GeneID 270906)	0	1.57	1.86	enough cells to score	inactive
52	Trak1 (GeneID 67095)		1.12	1.15	fewer than 50 cells per well; well left out of scoring	inactive
53	H2ac18 (GeneID 15267)	0.69	1.67	1.53	enough cells to score	inactive
54	Parp12 (GeneID 243771)		1.18	1.15	fewer than 50 cells per well; well left out of scoring	inactive
55	Cdc123 (GeneID 98828)	1.43	1.62	1.56	enough cells to score	inactive
56	Mrpl49 (GeneID 18120)	0.93	2.04	1.64	enough cells to score	inactive
57	Tmem222 (GeneID 52174)	1.15	1.67	1.78	enough cells to score	inactive
58	Wrn (GeneID 22427)	-0.44	1.56	1.34	enough cells to score	inactive
59	Plb1 (GeneID 665270)	0.28	1.66	1.85	enough cells to score	inactive
60	Ptprv (GeneID 13924)	0.85	1.49	1.27	enough cells to score	inactive
61	Nptx2 (GeneID 53324)	0.29	1.86	1.49	enough cells to score	inactive
62	Or5ac24 (GeneID 258993)	2.39	1.83	1.86	enough cells to score	inactive
63	Neu3 (GeneID 50877)	-1.51	1.51	1.39	enough cells to score	inactive
64	Ermn (GeneID 77767)	0.32	1.36	1.57	enough cells to score	inactive
65	Gtf2ird2 (GeneID 114674)	-0.54	1.55	1.51	enough cells to score	inactive
66	Cope (GeneID 59042)	-0.33	1.51	1.75	enough cells to score	inactive
67	Mal2 (GeneID 105853)	1.78	1.89	1.94	enough cells to score	inactive
68	Pnpla8 (GeneID 67452)	0.42	1.69	1.67	enough cells to score	inactive
69	Sst (GeneID 20604)		1.23	1.44	fewer than 50 cells per well; well left out of scoring	inactive
70	Zwint (GeneID 52696)	-0.45	1.48	1.74	enough cells to score	inactive
71	Dipk1b (GeneID 56279)	1.39	1.73	1.42	enough cells to score	inactive
72	Acox1 (GeneID 11430)	1.32	1.83	1.8	enough cells to score	inactive
73	Mc1r (GeneID 17199)	0.79	1.68	1.64	enough cells to score	inactive
74	Or2y3 (GeneID 258867)	0.98	1.6	1.69	enough cells to score	inactive
75	Rbm10 (GeneID 236732)	-0.22	1.37	1.17	enough cells to score	inactive
